According to PMC9114391:
These are yes or no findings as the source states them, for the method shown. Some entries that bind do so weakly or less than the wild type.

By UniProt entry, the sequences of proteins in these tests, tags left out.
UniProt Q07335: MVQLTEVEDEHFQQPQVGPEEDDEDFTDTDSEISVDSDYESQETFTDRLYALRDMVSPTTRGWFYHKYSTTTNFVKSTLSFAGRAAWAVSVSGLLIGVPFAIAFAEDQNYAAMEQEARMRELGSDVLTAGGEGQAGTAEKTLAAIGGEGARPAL
UniProt Q7SG90: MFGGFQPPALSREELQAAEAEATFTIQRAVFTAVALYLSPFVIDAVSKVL
UniProt P24391: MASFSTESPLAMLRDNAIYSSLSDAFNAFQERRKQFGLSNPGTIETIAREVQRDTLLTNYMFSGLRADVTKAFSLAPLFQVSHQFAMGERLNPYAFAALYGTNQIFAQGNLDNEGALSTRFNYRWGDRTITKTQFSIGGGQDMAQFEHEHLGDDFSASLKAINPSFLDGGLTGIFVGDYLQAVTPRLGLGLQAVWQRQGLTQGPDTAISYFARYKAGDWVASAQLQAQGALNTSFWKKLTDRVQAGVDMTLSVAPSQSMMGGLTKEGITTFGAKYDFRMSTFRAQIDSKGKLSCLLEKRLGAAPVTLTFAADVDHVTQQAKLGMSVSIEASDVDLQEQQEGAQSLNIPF

Target: Tom22 with a hexahistidine tag at the C-terminus (Neurospora crassa) (UniProt Q07335)
Assay: co-purification (Ni-NTA affinity and anion exchange chromatography, SDS-PAGE with Coomassie staining); mitochondria solubilised in 1% n-dodecyl-β-D-maltoside, 20% glycerol, 300 mM NaCl, 20 mM imidazole, 20 mM Tris-HCl pH 8.5; His-tagged Tom22 held on Ni-NTA, eluted with 300 mM imidazole; then Resource Q, 0-500 mM KCl

binding	Substance
binds	Tom5 (from UniProt Q7SG90 1-50)
binds	Tom40 (from UniProt P24391 1-349)
